Measurements from publication PMC12690290.
No constants are given. Whether binding was seen depends on the method and setting. In cells and extracts the contact can be indirect. These calls come from enrichment with a bait or labelling near it, and not all partners need be listed. For some of these results: A no says only that the protein was not detected with the bait.

Protein sequences, listed by entry. Tags and fused reporters are not part of them. Lines headed by an entry give the natural chain unless they say otherwise; changes in a name come on top. Residues count along the entry.
UniProt P02787, residues 20-698: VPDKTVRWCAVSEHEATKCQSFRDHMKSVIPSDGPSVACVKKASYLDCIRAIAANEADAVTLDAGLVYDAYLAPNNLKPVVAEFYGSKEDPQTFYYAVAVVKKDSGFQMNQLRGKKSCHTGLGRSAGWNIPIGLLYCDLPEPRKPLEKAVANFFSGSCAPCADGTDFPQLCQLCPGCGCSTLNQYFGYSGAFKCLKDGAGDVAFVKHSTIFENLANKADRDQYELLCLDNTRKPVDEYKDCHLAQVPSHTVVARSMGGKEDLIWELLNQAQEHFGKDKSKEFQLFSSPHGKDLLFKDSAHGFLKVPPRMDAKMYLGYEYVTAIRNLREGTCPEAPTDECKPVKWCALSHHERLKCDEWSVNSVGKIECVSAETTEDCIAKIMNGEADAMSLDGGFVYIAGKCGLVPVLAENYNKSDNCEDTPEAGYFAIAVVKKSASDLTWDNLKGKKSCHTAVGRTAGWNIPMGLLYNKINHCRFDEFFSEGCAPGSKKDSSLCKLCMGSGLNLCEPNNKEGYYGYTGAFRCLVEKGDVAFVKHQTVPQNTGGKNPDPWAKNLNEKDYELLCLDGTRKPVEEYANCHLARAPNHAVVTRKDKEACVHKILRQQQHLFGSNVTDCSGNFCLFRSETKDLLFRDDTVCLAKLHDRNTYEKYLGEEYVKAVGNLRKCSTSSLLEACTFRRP
UniProt P02749, residues 20-345: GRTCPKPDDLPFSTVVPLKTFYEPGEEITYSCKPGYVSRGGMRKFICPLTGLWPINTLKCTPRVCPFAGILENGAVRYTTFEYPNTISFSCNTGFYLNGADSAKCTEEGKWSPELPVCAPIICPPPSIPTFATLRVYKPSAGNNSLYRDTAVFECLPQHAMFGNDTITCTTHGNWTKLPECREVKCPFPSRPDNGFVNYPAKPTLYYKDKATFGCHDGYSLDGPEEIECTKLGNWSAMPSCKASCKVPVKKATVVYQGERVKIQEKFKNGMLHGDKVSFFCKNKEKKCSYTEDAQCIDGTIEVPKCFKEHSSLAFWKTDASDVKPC
UniProt P00751, residues 26-764: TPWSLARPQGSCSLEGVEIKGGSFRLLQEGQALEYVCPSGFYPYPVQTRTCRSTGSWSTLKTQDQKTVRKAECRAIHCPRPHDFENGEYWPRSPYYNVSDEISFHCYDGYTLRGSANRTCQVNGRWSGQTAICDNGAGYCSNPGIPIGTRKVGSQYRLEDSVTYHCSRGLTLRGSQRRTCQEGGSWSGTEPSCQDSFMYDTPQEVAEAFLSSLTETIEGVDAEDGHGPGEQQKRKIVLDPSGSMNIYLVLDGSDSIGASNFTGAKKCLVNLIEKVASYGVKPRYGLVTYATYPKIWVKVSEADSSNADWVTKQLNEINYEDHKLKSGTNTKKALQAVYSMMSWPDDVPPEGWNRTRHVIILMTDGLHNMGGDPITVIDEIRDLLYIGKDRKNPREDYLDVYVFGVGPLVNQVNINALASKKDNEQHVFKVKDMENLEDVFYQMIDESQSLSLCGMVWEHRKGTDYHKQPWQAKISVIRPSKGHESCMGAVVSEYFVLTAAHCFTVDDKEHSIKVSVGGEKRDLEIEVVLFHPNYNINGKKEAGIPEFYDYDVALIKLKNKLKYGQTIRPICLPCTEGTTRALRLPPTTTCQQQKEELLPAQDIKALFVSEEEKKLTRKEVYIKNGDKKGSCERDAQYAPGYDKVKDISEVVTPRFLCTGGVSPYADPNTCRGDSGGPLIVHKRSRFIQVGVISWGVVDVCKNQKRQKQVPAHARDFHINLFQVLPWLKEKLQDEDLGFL
UniProt P05156, residues 19-583: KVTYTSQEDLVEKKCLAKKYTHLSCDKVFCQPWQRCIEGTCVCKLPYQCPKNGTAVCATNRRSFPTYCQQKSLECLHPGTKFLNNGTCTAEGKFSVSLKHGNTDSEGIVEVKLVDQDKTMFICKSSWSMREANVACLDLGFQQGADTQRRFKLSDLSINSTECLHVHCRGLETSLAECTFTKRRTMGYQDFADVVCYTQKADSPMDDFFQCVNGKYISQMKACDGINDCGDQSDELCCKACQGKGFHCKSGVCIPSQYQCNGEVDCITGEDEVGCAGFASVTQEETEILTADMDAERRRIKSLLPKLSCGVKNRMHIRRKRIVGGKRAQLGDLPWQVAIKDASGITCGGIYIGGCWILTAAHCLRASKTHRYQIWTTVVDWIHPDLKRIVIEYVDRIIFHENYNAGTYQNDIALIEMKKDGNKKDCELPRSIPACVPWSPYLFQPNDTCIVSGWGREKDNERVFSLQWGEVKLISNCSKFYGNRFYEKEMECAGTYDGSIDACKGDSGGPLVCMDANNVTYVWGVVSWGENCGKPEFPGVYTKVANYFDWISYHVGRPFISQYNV
UniProt Q14624, residues 29-930: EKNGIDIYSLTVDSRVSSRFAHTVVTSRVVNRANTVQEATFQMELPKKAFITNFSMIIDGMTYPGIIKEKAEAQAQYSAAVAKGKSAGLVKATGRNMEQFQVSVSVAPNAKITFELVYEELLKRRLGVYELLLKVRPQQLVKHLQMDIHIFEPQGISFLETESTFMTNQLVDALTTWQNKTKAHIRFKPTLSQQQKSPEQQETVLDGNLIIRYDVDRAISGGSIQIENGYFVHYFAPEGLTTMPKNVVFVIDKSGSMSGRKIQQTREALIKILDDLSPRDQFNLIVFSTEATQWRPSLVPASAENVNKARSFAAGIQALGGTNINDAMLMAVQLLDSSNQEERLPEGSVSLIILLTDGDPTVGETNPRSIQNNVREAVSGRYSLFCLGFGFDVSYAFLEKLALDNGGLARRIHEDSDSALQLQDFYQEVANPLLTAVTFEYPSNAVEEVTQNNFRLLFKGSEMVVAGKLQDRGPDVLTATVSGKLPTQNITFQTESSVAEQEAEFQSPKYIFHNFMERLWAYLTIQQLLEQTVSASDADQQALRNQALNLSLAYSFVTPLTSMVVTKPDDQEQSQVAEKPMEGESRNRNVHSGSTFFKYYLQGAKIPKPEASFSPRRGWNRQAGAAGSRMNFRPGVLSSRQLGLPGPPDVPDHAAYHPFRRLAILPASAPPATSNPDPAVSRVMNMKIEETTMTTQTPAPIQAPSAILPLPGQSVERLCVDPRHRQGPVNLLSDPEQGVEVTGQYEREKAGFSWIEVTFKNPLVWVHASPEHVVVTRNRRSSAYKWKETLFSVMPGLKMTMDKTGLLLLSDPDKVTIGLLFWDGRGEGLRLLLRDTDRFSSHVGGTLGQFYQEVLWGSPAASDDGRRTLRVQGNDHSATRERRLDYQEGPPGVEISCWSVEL
UniProt P00747: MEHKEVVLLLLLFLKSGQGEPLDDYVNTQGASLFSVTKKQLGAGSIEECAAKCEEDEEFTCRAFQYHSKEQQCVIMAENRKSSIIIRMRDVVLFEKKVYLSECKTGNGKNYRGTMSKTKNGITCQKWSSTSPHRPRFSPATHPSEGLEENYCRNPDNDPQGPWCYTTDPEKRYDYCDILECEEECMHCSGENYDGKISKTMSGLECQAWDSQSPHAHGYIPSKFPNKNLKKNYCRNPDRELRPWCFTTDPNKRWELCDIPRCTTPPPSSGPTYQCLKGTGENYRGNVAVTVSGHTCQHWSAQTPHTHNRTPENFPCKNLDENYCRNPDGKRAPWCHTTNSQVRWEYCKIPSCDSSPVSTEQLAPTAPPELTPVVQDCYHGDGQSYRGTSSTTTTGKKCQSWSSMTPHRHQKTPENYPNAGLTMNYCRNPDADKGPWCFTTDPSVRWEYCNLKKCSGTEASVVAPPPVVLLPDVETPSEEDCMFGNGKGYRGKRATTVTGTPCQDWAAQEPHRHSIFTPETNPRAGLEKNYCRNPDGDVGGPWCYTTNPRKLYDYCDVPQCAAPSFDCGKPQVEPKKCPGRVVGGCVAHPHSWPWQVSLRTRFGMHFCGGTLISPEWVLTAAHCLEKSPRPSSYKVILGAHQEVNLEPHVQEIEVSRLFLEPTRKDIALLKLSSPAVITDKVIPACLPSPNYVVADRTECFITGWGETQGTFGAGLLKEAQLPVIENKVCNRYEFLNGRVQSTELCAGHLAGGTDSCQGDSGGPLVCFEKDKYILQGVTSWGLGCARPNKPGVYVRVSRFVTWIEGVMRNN
UniProt P03952, residues 20-638: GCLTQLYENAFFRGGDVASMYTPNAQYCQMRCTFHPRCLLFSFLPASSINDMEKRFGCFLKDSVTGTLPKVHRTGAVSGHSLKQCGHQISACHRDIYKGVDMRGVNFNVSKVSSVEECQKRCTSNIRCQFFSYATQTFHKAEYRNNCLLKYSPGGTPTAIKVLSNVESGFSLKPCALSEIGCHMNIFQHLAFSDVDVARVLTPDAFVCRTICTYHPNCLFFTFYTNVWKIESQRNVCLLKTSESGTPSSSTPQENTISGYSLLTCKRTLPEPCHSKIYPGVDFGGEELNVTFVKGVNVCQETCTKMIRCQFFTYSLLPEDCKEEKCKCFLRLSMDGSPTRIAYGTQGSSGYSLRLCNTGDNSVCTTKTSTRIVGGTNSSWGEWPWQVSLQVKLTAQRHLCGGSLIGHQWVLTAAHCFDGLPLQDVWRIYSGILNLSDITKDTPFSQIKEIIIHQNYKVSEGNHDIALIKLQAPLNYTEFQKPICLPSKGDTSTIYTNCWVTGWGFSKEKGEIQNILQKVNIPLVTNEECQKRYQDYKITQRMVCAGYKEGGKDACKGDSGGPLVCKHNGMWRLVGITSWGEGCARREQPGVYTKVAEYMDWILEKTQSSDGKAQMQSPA

T1: mesoheme–rabbit hemopexin (1:1 heme–HPX complex) (rabbit) (UniProt P20058)
T1 sequence: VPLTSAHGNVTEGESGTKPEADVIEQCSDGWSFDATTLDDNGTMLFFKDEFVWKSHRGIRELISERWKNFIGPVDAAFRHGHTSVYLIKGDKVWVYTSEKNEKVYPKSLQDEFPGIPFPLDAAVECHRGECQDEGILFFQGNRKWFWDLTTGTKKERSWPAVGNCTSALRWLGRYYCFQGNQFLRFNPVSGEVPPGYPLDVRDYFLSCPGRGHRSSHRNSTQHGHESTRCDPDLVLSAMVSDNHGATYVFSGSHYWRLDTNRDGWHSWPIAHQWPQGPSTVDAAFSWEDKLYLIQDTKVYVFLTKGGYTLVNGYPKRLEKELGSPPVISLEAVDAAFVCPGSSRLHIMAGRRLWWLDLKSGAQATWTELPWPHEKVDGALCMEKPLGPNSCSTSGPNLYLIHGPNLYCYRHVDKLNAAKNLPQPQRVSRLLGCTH

T2: heme–human hemopexin (1:1 heme–HPX complex) (human) (UniProt P02790)
T2 sequence: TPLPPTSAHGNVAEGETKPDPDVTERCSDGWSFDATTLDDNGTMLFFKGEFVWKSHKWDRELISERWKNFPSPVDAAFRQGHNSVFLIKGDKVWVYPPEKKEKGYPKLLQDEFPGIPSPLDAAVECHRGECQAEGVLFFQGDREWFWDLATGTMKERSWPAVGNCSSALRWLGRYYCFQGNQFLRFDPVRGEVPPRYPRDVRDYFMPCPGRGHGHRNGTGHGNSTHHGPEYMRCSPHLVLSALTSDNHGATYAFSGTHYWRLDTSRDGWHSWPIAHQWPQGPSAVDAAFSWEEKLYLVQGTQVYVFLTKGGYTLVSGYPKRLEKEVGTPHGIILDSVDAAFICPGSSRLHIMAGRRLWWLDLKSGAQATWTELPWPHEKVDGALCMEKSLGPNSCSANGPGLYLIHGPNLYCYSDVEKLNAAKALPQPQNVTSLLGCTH


Tests used:
[1] = molecular target: holo-human transferrin (human) (UniProt P02787); assay: affinity purification with mass spectrometry; proto-heme–human HPX, mesoheme–rabbit HPX or holo-human Tf Affi-Gel 15; detergent extracts of primary human hepatocytes; proteins found on underivatized, mouse IgG or ovalbumin resins filtered out; only the target purified
[2] = molecular target: T1, mesoheme–rabbit hemopexin (1:1 heme–HPX complex) (rabbit); assay: as above
[3] = molecular target: holo-human transferrin (human) (UniProt P02787); assay: affinity purification with mass spectrometry; heme–HPX or holo-human Tf Affi-Gel 15 against ovalbumin Affi-Gel 15; HepG2 whole-cell extracts (0.5% Triton X-100, HEPES pH 7.4, 150 mM NaCl); 2-fold or greater over the negative control counted as specifically bound; only the target purified
[4] = molecular target: T2, heme–human hemopexin (1:1 heme–HPX complex) (human); assay: affinity purification with mass spectrometry; proto-heme–human HPX, mesoheme–rabbit HPX or holo-human Tf Affi-Gel 15; detergent extracts of primary human hepatocytes; proteins found on underivatized, mouse IgG or ovalbumin resins filtered out; only the target purified
[5] = molecular target: T2, heme–human hemopexin (1:1 heme–HPX complex) (human); assay: affinity purification with mass spectrometry; as a6, isolation from human hepatocyte extract in the presence of RAP (500 nM); the pairs that are blocked; only the target purified
[6] = molecular target: T1, mesoheme–rabbit hemopexin (1:1 heme–HPX complex) (rabbit); assay: affinity purification with mass spectrometry; heme–HPX or holo-human Tf Affi-Gel 15 against ovalbumin Affi-Gel 15; HepG2 whole-cell extracts (0.5% Triton X-100, HEPES pH 7.4, 150 mM NaCl); 2-fold or greater over the negative control counted as specifically bound; only the target purified

Row | binding [1] | binding [2] | binding [3] | binding [4] | binding [5] | binding [6] | Molecule
1 | binds | binds | binds |  |  |  | Apolipoprotein H (from UniProt P02749 20-345)
2 | binds | binds |  |  |  |  | Complement factor B (from UniProt P00751 26-764) (enzyme)
3 | binds | binds |  | binds |  |  | Complement factor I (from UniProt P05156 19-583) (enzyme)
4 | binds | binds |  |  |  |  | Inter-alpha-trypsin inhibitor heavy chain H4 (from UniProt Q14624 29-930)
5 | no binding | binds |  | binds | binds | binds | Low-density lipoprotein receptor 1 (low-density lipoprotein-related protein 1) (from UniProt Q07954 20-4544)
6 | binds | binds |  |  |  |  | Plasminogen (from UniProt P00747) (enzyme)
7 | binds | binds |  | binds |  |  | Prekallikrein B1 (from UniProt P03952 20-638) (enzyme)
8 | binds | binds | binds |  |  |  | Complement component 2 (protein, UniProt P06681 21-752) APSCPQNVNISGGTFTLSHGWAPGSLLTYSCPQGLYPSPASRLCKSSGQWQTPGATRSLSKAVCKPVRCPAPVSFENGIYTPRLGSYPVGGNVSFECEDGFILRGSPVRQCRPNGMWDGETAVCDNGAGHCPNPGISLGAVRTGFRFGHGDKVRYRCSSNLVLTGSSERECQGNGVWSGTEPICRQPYSYDFPEDVAPALGTSFSHMLGATNPTQKTKESLGRKIQIQRSGHLNLYLLLDCSQSVSENDFLIFKESASLMVDRIFSFEINVSVAIITFASEPKVLMSVLNDNSRDMTEVISSLENANYKDHENGTGTNTYAALNSVYLMMNNQMRLLGMETMAWQEIRHAIILLTDGKSNMGGSPKTAVDHIREILNINQKRNDYLDIYAIGVGKLDVDWRELNELGSKKDGERHAFILQDTKALHQVFEHMLDVSKLTDTICGVGNMSANASDQERTPWHVTIKPKSQETCRGALISDQWVLTAAHCFRDGNDHSLWRVNVGDPKSQWGKEFLIEKAVISPGFDVFAKKNQGILEFYGDDIALLKLAQKVKMSTHARPICLPCTMEANLALRRPQGSTCRDHENELLNKQSVPAHFVALNGSKLNINLKMGVEWTSCAEVVSQEKTMFPNLTDVREVVTDQFLCSGTQEDESPCKGESGGAVFLERRFRFFQVGLVSWGLYNPCLGSADKNSRKRAPRSKVPPPRDFHINLFRMQPWLRQHLGDVLNFLPL
9 |  |  |  | binds |  |  | Angiopoietin-like protein 3 (protein, UniProt Q9Y5C1 17-460) SRIDQDNSSFDSLSPEPKSRFAMLDDVKILANGLLQLGHGLKDFVHKTKGQINDIFQKLNIFDQSFYDLSLQTSEIKEEEKELRRTTYKLQVKNEEVKNMSLELNSKLESLLEEKILLQQKVKYLEEQLTNLIQNQPETPEHPEVTSLKTFVEKQDNSIKDLLQTVEDQYKQLNQQHSQIKEIENQLRRTSIQEPTEISLSSKPRAPRTTPFLQLNEIRNVKHDGIPAECTTIYNRGEHTSGMYAIRPSNSQVFHVYCDVISGSPWTLIQHRIDGSQNFNETWENYKYGFGRLDGEFWLGLEKIYSIVKQSNYVLRIELEDWKDNKHYIEYSFYLGNHETNYTLHLVAITGNVPNAIPENKDLVFSTWDHKAKGHFNCPEGYSGGWWWHDECGENNLNGKYNKPRAKSKPERRRGLSWKSQNGRLYSIKSTKMLIHPTDSESFE
10 | binds | binds |  |  |  |  | Fetuin-B (protein, UniProt Q9UGM5 16-382) CGAMSPPQLALNPSALLSRGCNDSDVLAVAGFALRDINKDRKDGYVLRLNRVNDAQEYRRGGLGSLFYLTLDVLETDCHVLRKKAWQDCGMRIFFESVYGQCKAIFYMNNPSRVLYLAAYNCTLRPVSKKKIYMTCPDCPSSIPTDSSNHQVLEAATESLAKYNNENTSKQYSLFKVTRASSQWVVGPSYFVEYLIKESPCTKSQASSCSLQSSDSVPVGLCKGSLTRTHWEKFVSVTCDFFESQAPATGSENSAVNQKPTNLPKVEESQQKNTPPTDSPSKAGPRGSVQYLPDLDDKNSQEKGPQEAFPVHLDLTTNPQGETLDISFLFLEPMEEKLVVLPFPKEKARTAECPGPAQNASPLVLPP
11 | binds | binds |  |  |  |  | Protein C inhibitor (protein, UniProt P05154 26-406) EMKKRVEDLHVGATVAPSSRRDFTFDLYRALASAAPSQSIFFSPVSISMSLAMLSLGAGSSTKMQILEGLGLNLQKSSEKELHRGFQQLLQELNQPRDGFQLSLGNALFTDLVVDLQDTFVSAMKTLYLADTFPTNFRDSAGAMKQINDYVAKQTKGKIVDLLKNLDSNAVVIMVNYIFFKAKWETSFNHKGTQEQDFYVTSETVVRVPMMSREDQYHYLLDRNLSCRVVGVPYQGNATALFILPSEGKMQQVENGLSEKTLRKWLKMFKKRQLELYLPKFSIEGSYQLEKVLPSLGISNVFTSHADLSGISNHSNIQVSEMVHKAVVEVDESGTRAAAATGTIFTFRSARLNSQRLVFNRPFLMFIVDNNILFLGKVNRP
